Binding data for one molecule are collected here from US20170159065A1 (VIB VZW, published 2017).

In the test the target is T1, JAZ3 (Arabidopsis, UniProt Q9LVI4 1-352).
T1 construct: Endogenous prey in TAP; Y2H fusion in the yeast assays
T1 sequence (looked up): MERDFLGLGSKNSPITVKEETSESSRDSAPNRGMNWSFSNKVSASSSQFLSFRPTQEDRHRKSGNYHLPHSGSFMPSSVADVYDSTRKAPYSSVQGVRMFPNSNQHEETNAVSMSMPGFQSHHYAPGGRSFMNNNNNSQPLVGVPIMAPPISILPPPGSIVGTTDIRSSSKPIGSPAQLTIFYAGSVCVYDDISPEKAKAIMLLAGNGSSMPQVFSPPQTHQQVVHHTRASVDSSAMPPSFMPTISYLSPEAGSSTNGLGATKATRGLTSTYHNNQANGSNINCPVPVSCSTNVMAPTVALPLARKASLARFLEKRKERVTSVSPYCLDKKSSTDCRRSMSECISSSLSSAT
In words: yeast two-hybrid with truncated versions of PPD2.

These are yes or no findings as the source states them, for the method shown. Some entries that bind do so weakly or less than the wild type.

B1: PPD2 ZIM domain (truncated version of PPD2) (peptide, Arabidopsis thaliana, UniProt Q8GY55 151-186, looked up)
chain: TNAVVGQMTIFYSGKVNVYDGVPPEKARSIMHFAAN
B1: the binding entry is listed as “binds”.
